In article PMC2845627:

Target: A. thaliana TFII (Transcription Factor II) (LexA DNA-binding domain fusion) (A. thaliana)
Assay: two-hybrid; Matchmaker LexA Two-Hybrid System (Clontech); bait fused to the LexA DNA-binding domain, prey fused to the B42 activation domain

B1: Bin4 (B42 activation domain fusion) (protein, UniProt Q9FLU1 1-454)
chain: MSSSSREGSPDWLRSYEAPMTTSLLSLSSSDDDSPYRESEVISSLPLPDDDGDDIVVLETESVELLTRKNSETKVVTKQVSIEQVFSRKKKADASLNLEDSCAGKENGNNVDCEKLSSKHKDAQGGADSVWLVSSDSEPSSPIKQEVTVSTEKDADFVLEATEEEPAVKTVRKEKSPKTKSKSSRKTPKEGNSAQEILKTEDKDTDTTIAEQVTPEKSPKTKSKSSRKTPKEENCAQEILKTEDKDKDTDTDTIIAEEVTTDQKIKPSSGSSSRLPLVLSEKVNRTKVLVECEGDSIDLSGDMGAVGRVVVSDTTGDMYLDLKGTIYKSTIIPSRTFCVVNVGQTEAKIEAIMNDFIQLIPQSNVYEAETMVEGTLEGFTFESDDESNKNAKTAVKPADQSVGTEEETNTKAKPKAKAKGETVIGKKRGRPSKEKQPPAKKARNSAPKKPKAKK
B1 was tested, and the binding was “binds”.

These are yes or no findings as the source states them, for the method shown. Binding can be weak; no strength is given. Where a sequence is shown, tags or fusion partners need not be part of it.
